PubChem BioAssay AID1259308 | NCATS – 2017
The deposit covers about 59,000 reagents; shown is an unselected part. In the full data, about 1,510 (2.6%) were called active. 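Calls use total luciferase alone and ignore viability, so some active siRNAs may act by altering cell number.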 Not all columns of the deposit are shown.

Purpose: 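Candidate targets for better recombinant protein yield in mammalian cells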 (primary screen)
Cells: human HEK293 embryonic kidney cells stably expressing firefly luciferase (HEK-CMV-Luc2-Hygro)
Reagent: single siRNA against human genes, 0.8 pmol siRNA per well
Duration: 72 h
Read-out: 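Luciferase light (ONE-Glo) measured on one replicate plate set and viability (CellTiter-Glo) on the other, scaled to a negative control siRNA, with robust z-scores and luciferase per cell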
Scale: total luciferase, z-score: higher = more reporter protein produced
Active means: 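An siRNA counts as active if its total luciferase robust z-score exceeds 3; genes with two or more such siRNAs out of three were retested with fresh siRNAs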
Calls: active = raised luciferase; inactive = no rise

total luciferase, z-score, by gene and reagent
CAD: SID160731909 2.25 inactive; SID160735626 1.23 inactive; SID160735636 0.972 inactive
PCDHA13 (protocadherin alpha 13): SID160744853 0.472 inactive; SID160744854 -0.341 inactive; SID160744855 -0.674 inactive
CLTCL1 (clathrin heavy chain like 1): SID160719731 -0.779 inactive; SID160719732 -0.581 inactive; SID160719733 -1.04 inactive
NRG1 (neuregulin 1): SID160723855 -0.501 inactive; SID160723856 0.234 inactive; SID160727839 5.46 active
IFT27 (intraflagellar transport 27): SID160729760 0.132 inactive; SID160729761 2.73 inactive; SID160729762 -0.0936 inactive
SND1-IT1 (SND1 intronic transcript 1): SID160732895 -0.0134 inactive; SID160738370 -1.52 inactive; SID160738371 1.37 inactive
RIMBP3 (RIMS binding protein 3): SID160753220 0.694 inactive; SID160753221 1.36 inactive; SID160753222 0.501 inactive
ASIP (agouti signaling protein): SID160720718 -2.65 inactive; SID160720729 -0.0429 inactive; SID160720740 1.6 inactive
NPFFR1 (neuropeptide FF receptor 1): SID160724513 0.0737 inactive; SID160747465 -1.53 inactive; SID160747466 -1.64 inactive
REG1B (regenerating family member 1 beta): SID160715784 1.28 inactive; SID160715785 0.975 inactive; SID160715786 1.89 inactive
IGLV5-39 (immunoglobulin lambda variable 5-39): SID160770618 2.91 inactive; SID160770619 -0.0551 inactive; SID160770620 -0.893 inactive
MON2 (MON2 regulator of endosome-to-Golgi trafficking): SID160735307 -0.712 inactive; SID160735310 -1.01 inactive; SID160735311 0.261 inactive
C9orf40 (chromosome 9 open reading frame 40): SID160742868 -1.11 inactive; SID160742869 -0.318 inactive; SID160742870 0.722 inactive
HAS3 (hyaluronan synthase 3): SID160723833 0.345 inactive; SID160723834 -0.335 inactive; SID160774856 -0.701 inactive
CAPN15 (calpain 15): SID160717174 0.663 inactive; SID160717175 -0.387 inactive; SID160717176 0.416 inactive
CHMP1B (charged multivesicular body protein 1B): SID160745676 0.994 inactive; SID160745677 -0.226 inactive; SID160745678 0.199 inactive
SLC16A14: SID160759105 -0.21 inactive; SID160759107 -0.0543 inactive; SID160759108 -0.586 inactive
SETP4 (SET pseudogene 4): SID160768714 0.873 inactive; SID160768715 -0.169 inactive; SID160768717 1.08 inactive
MFHAS1 (multifunctional ROCO family signaling regulator 1): SID160721833 -0.7 inactive; SID160721834 -0.548 inactive; SID160721835 -1.54 inactive
